Data taken from paper doi:10.1101/040543.
These are yes or no findings as the source states them, for the method shown. For part of these data: In cells and extracts the contact can be indirect. Some binding calls cover weakened binding; strength is not graded here. For part of these data: Tags and fused reporters may be left off the sequences shown.

T1: PARAQUAT TOLERANCE3 (PQT3), full-length, two-hybrid bait in pDEST32 (Arabidopsis thaliana) (UniProt F4JP52)
T1 sequence: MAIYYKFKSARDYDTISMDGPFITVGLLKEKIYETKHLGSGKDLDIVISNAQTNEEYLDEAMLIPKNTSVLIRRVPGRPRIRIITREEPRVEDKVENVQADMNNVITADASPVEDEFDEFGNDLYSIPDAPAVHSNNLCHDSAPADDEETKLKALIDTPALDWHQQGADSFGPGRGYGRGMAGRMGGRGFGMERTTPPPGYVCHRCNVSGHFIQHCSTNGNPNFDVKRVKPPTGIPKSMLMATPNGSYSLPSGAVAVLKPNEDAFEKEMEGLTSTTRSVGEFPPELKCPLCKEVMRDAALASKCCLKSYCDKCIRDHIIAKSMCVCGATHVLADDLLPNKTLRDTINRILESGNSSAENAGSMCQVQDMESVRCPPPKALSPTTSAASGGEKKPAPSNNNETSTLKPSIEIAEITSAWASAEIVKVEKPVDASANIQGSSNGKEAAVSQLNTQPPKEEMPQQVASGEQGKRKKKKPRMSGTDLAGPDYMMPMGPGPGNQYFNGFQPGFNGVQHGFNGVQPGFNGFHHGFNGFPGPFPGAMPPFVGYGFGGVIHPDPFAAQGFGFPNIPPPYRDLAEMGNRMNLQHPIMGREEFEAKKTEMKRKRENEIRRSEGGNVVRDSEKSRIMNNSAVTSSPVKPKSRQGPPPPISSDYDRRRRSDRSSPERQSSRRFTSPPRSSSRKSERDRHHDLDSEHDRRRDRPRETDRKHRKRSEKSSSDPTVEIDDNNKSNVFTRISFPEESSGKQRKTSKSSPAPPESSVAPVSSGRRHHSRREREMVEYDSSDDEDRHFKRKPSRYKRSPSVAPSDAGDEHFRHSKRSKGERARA

T2: NE-PQT3 (the N-terminal part of YFP fused with PQT3) (Arabidopsis thaliana) (UniProt F4JP52)
T2 sequence: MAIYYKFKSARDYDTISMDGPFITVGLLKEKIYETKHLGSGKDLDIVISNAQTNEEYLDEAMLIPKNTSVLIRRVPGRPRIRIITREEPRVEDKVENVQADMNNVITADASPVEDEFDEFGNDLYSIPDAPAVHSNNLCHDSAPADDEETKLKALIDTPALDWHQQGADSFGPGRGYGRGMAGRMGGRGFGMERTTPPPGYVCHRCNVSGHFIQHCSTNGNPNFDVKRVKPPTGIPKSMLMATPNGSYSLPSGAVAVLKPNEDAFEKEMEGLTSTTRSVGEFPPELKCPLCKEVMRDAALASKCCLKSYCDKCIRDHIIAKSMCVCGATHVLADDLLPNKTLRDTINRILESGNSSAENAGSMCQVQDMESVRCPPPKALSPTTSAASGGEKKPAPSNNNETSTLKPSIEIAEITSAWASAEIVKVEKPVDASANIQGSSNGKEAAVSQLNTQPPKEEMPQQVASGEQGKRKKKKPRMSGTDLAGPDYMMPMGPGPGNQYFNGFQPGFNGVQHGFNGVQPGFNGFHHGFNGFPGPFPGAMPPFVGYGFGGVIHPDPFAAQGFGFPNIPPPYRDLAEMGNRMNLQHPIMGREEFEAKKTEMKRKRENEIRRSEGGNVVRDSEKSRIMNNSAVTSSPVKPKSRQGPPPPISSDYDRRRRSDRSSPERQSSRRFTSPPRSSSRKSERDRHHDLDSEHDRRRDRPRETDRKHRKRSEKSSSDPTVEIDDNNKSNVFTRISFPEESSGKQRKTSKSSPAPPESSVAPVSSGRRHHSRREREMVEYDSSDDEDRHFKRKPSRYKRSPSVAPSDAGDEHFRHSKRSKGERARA


Assays:
[1] = biological target: T1, PARAQUAT TOLERANCE3 (PQT3), full-length, two-hybrid bait in pDEST32 (Arabidopsis thaliana); experiment: two-hybrid
[2] = biological target: T2, NE-PQT3 (the N-terminal part of YFP fused with PQT3) (Arabidopsis thaliana); experiment: split reporter

Row | Binder | binding [1] | binding [2]
1 | PRMT4b, two-hybrid prey in pDEST22 (protein, UniProt Q84W92 1-535) MEVSSVKKLEQLEYSLESVTDLSSSSVSSSSPAVATFSYVDGVTELRFLQSDSTHCFNFDLASAQLFKLGPVHFICVSDGSSSSEEKSFSKGVNIKFKNEKDSKDFCESFEEWRNDSVVQGSSLQNGTVSANKSKFDNKIEASSAKMYFHYYGQLLHQQNMLQDYVRTGTYYAAVMENHSDFAGRVVVDVGAGSGILSMFAAQAGAKHVYAVEASEMAEYARKLIAGNPLFADRITVIKGKVEDIELPEKADILISEPMGTLLVNERMLESYVIARDRFMTPKGKMFPTVGRIHMAPFSDEFLFIEMANKAMFWQQQNYYGVDLTPLYGSAHQGYFSQPVVDAFDPRLLVASPMFHMIDFTQMKEEDFYEIDIPLKFTASMCTRMHGLACWFDVLFDGSTVQRWLTTAPGAPTTHWYQIRCVLSQPIYVMAGQEITGRLHLIAHSAQSYTIDLTLSAKMWGPGASQGGILQSSTCKFDLKEPYYRMSQPQAYPVAQEPPLQPQPELSTQQDIQTPNDELEEELLQQLPQNPSAQL | binds | –
2 | CE-PRMT4b (the C-terminal part of YFP fused with PRMT4b) (protein, UniProt Q84W92 1-535) MEVSSVKKLEQLEYSLESVTDLSSSSVSSSSPAVATFSYVDGVTELRFLQSDSTHCFNFDLASAQLFKLGPVHFICVSDGSSSSEEKSFSKGVNIKFKNEKDSKDFCESFEEWRNDSVVQGSSLQNGTVSANKSKFDNKIEASSAKMYFHYYGQLLHQQNMLQDYVRTGTYYAAVMENHSDFAGRVVVDVGAGSGILSMFAAQAGAKHVYAVEASEMAEYARKLIAGNPLFADRITVIKGKVEDIELPEKADILISEPMGTLLVNERMLESYVIARDRFMTPKGKMFPTVGRIHMAPFSDEFLFIEMANKAMFWQQQNYYGVDLTPLYGSAHQGYFSQPVVDAFDPRLLVASPMFHMIDFTQMKEEDFYEIDIPLKFTASMCTRMHGLACWFDVLFDGSTVQRWLTTAPGAPTTHWYQIRCVLSQPIYVMAGQEITGRLHLIAHSAQSYTIDLTLSAKMWGPGASQGGILQSSTCKFDLKEPYYRMSQPQAYPVAQEPPLQPQPELSTQQDIQTPNDELEEELLQQLPQNPSAQL | – | binds
3 | PRMT4a, two-hybrid partner of PQT3 (protein, UniProt A3KPF2 1-528) MEIPSLNKQQEFTLASVTDLTSPSSSLSSSPVVATFSCVNEVKELRFQESKSSDGFSFDLSSTQLFKLGPLQFTCVSDGSISSAKEKSSFSRGVVIKFRDEKDSKEFCDSFEECKKDDAVKQGSALPNGTVVSANKSKFDDKIEAASAKMYFHYYGQLLHQQNMLQDYVRTGTYHAAVMENRSDFSGRVVVDVGAGSGILSMFAALAGAKHVYAVEASEMAEYARKLIAGNPLLAERITVIKGKIEDIELPEKADVLISEPMGTLLVNERMLETYVIARDRFLSPNGKMFPTVGRIHMAPFADEFLFVEMANKALFWQQQNYYGVDLTPLYVSAHQGYFSQPVVDAFDPRLLVAPSMFHVIDFTMMTEEQFYEIDIPLKFTASVCTRIHGLACWFDVLFDGSTVQRWFTTAPGAPTTHWYQIRCVLSQPIHVMAGQEITGRLHLIAHSAQSYTINLTLSAKMWGPGANQGGILQTSSCKLDLKEPYYRMSQPQVYPTQEPPAQSQDIHIHSDDLEELELLQQNANAQL | no binding | –
